Reference: the supplement of paper PMC10331698
± gives the standard deviation of the averaged measurements. Most values lie at the level of the controls, where differences are scatter.

Tests used:
Test in all cases: level (log10 ratio to DMSO vehicle control); higher = higher biomarker level / cell amount than vehicle control
[1] = compound: NC(=O)C(F)(F)C(F)(F)F [Pentafluoropropionamide]; details: 2200 nM; in DMSO
Procedure: (§1)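 BioMAP Diversity Plus panel of 12 human primary cell co-culture systems (3C, 4H, LPS, SAg, BT, BF4T, BE3C, CASM3C, HDF3CGF, KF3CT, MyoF, Mphg). Compounds were added 1 h before stimulation and left for 24 h (MyoF 48 h; BT 72 h for soluble read-outs or 6 d for IgG). Biomarkers were read by ELISA, cytotoxicity by SRB, PBMC viability and proliferation by Alamar Blue. Each well value was divided by the mean of 8 DMSO control wells on the same plate and log10 transformed; duplicate blinded samples were tested at 4 concentrations.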

[2] = compound: CO[Si](C)(CCC(F)(F)C(F)(F)C(F)(F)C(F)(F)C(F)(F)C(F)(F)F)OC [Dimethoxymethyl((perfluorohexyl)ethyl)silane]; details: in DMSO
Procedure: as §1

[3] = compound: O=S(=O)(OCC(F)(F)F)C(F)(F)C(F)(F)C(F)(F)C(F)(F)F [2,2,2-Trifluoroethyl perfluorobutanesulfonate]; details: 2200 nM; in DMSO
Procedure: as §1

[4] = compound: O=S(=O)(F)C(F)(F)C(F)(F)C(F)(F)C(F)(F)C(F)(F)C(F)(F)C(F)(F)C(F)(F)F [Perfluorooctanesulfonyl fluoride]; details: 2200 nM; in DMSO
Procedure: as §1

[5] = compound: C=CC(F)(F)C(F)(F)C(F)(F)C(F)(F)C(F)(F)C(F)(F)C(F)(F)C(F)(F)C=C [1,8-Divinylperfluorooctane]; details: in DMSO
Procedure: as §1

[6] = compound: FC(F)(F)C(F)(F)C(F)(F)CI [Heptafluorobutyl iodide]; details: 2200 nM; in DMSO
Procedure: as §1

[7] = compound: O=P(O)(O)CCC(F)(F)C(F)(F)C(F)(F)C(F)(F)C(F)(F)C(F)(F)F [2-(Perfluorohexyl)ethylphosphonic acid]; details: 2200 nM; in DMSO
Procedure: as §1

[8] = compound: FC(F)(F)C(F)(F)C(F)(F)CC1CO1 [1H,1H-Heptafluorobutyl epoxide]; details: 2200 nM; in DMSO
Procedure: as §1

[9] = compound: O=S(=O)(O)C(F)(F)C(F)(F)C(F)(F)C(F)(F)C(F)(F)C(F)(F)C(F)(F)C(F)(F)F [Perfluorooctanesulfonic acid]; details: 2200 nM; in DMSO
Procedure: as §1

[10] = compound: O=S(=O)(O)C(F)(F)C(F)(F)C(F)(F)C(F)(F)C(F)(F)C(F)(F)C(F)(F)C(F)(F)F [Potassium perfluorooctanesulfonate]; details: 2200 nM; in DMSO
Procedure: as §1

[11] = compound: COC(=O)C(F)(F)C(F)(F)OC(F)(C(F)(F)F)C(F)(F)OC(F)=C(F)F [Methyl perfluoro(3-(1-ethenyloxypropan-2-yloxy)propanoate)]; details: in DMSO
Procedure: as §1

[12] = compound: C=C(C)C(=O)OCC(F)(F)C(F)(F)C(F)(F)C(F)(F)C(F)(F)C(F)(F)C(F)(F)F; details: in DMSO
Procedure: as §1

[13] = compound: NC(=O)C(F)(F)C(F)(F)C(F)(F)C(F)F; details: in DMSO
Procedure: as §1

[14] = compound: O=C(O)C(F)(F)C(F)(F)C(F)F [4H-Perfluorobutanoic acid]; details: in DMSO
Procedure: as §1

[15] = compound: OCC(F)(F)C(F)(F)C(F)(F)C(F)(F)C(F)(F)C(F)F [1H,1H,7H-Dodecafluoro-1-heptanol]; details: 2200 nM; in DMSO
Procedure: as §1

[16] = compound: OCCCCC(F)(F)C(F)(F)C(F)(F)C(F)(F)F [4:4 Fluorotelomer alcohol]; details: 2200 nM; in DMSO
Procedure: as §1

[17] = compound: C=CC(=O)OCC(F)(F)C(F)(F)C(F)(F)C(F)(F)C(F)(F)C(F)(F)C(F)(F)F [1H,1H-Perfluorooctyl acrylate]; details: 2200 nM; in DMSO
Procedure: as §1

[18] = compound: NS(=O)(=O)C(F)(F)C(F)(F)C(F)(F)C(F)(F)C(F)(F)C(F)(F)C(F)(F)C(F)(F)F [Perfluorooctanesulfonamide]; details: in DMSO
Procedure: as §1

| Test System | level (log10) [1] | level (log10) ([2]; 740 nM) | level (log10) ([2]; 2200 nM) | level (log10) [3] | level (log10) [4] | level (log10) ([5]; 740 nM) | level (log10) ([5]; 2200 nM) | level (log10) [6] | level (log10) [7] | level (log10) [8] | level (log10) [9] | level (log10) [10] | level (log10) ([11]; 740 nM) | level (log10) ([11]; 2200 nM) | level (log10) ([12]; 740 nM) | level (log10) ([12]; 2200 nM) | level (log10) ([13]; 2200 nM) | level (log10) ([13]; 6700 nM) | level (log10) ([13]; 20000 nM) | level (log10) ([13]; 60000 nM) | level (log10) ([14]; 2200 nM) | level (log10) ([14]; 6700 nM) | level (log10) ([14]; 20000 nM) | level (log10) ([14]; 60000 nM) | level (log10) [15] | level (log10) [16] | level (log10) [17] | level (log10) ([18]; 2200 nM) | level (log10) ([18]; 6700 nM) | level (log10) ([18]; 20000 nM) |
| --- | --- | --- | --- | --- | --- | --- | --- | --- | --- | --- | --- | --- | --- | --- | --- | --- | --- | --- | --- | --- | --- | --- | --- | --- | --- | --- | --- | --- | --- | --- |
| BE3C:Keratin 8/18 | -0.007 ± 0.0028 | 0.001 ± 0.023 | 0.023 ± 0.0014 | -0.0075 ± 0.0064 | -0.0055 ± 0.00071 | -0.007 ± 0.018 | -0.013 ± 0.0014 | -0.008 ± 0.0085 | -0.001 ± 0.018 | -0.007 ± 0.018 | 0.005 ± 0.038 | 0.0125 ± 0.018 | 0.0035 ± 0.037 | 0.0035 ± 0.022 | 0.0045 ± 0.016 | -0.0125 ± 0.0064 | -0.009 ± 0.028 | -0.0045 ± 0.0092 | -0.0025 ± 0.005 | -0.0185 ± 0.033 | -0.0125 ± 0.019 | -0.017 ± 0.014 | -0.021 ± 0.011 | 0.0075 ± 0.00071 | -0.0005 ± 0.0064 | -0.005 ± 0.018 | -0.016 ± 0.027 | -0.0205 ± 0.012 | -0.0475 ± 0.013 | -0.0185 ± 0.0021 |
| HDF3CGF:PAI-I | 0.0065 ± 0.052 | 0.0025 ± 0.032 | -0.0145 ± 0.00071 | -0.004 ± 0.018 | -0.027 ± 0.05 | 0.0025 ± 0.046 | 0.0065 ± 0.033 | 0.0165 ± 0.056 | -0.002 ± 0.042 | -0.001 ± 0.023 | 0.0165 ± 0.0078 | 0.0185 ± 0.005 | 0.028 ± 0.028 | 0.054 ± 0.0085 | 0.008 ± 0.055 | -0.0085 ± 0.025 | -0.008 ± 0.045 | -0.012 ± 0.011 | -0.016 ± 0.0099 | 0 ± 0.038 | -0.018 ± 0.071 | -0.021 ± 0.12 | 0.0115 ± 0.1 | 0.03 ± 0.069 | 0.0075 ± 0.012 | 0.011 ± 0.018 | 0.0565 ± 0.087 | 0.0185 ± 0.016 | 0.005 ± 0.033 | -0.45 ± 0.26 |
| LPS:sPGE2 | 0.0065 ± 0.11 | -0.0005 ± 0.069 | -0.0255 ± 0.083 | 0.0215 ± 0.047 | -0.0215 ± 0.03 | -0.04 ± 0.0042 | -0.023 ± 0.0099 | -0.045 ± 0.021 | -0.015 ± 0.031 | 0.044 ± 0.057 | 0.025 ± 0.024 | 0.0165 ± 0.0064 | 0.049 ± 0.021 | 0.023 ± 0.057 | -0.0305 ± 0.05 | -0.022 ± 0.047 | -0.005 ± 0.051 | -0.0045 ± 0.028 | -0.0005 ± 0.005 | 0.0315 ± 0.036 | -0.004 ± 0.027 | 0.0025 ± 0.054 | -0.111 ± 0.054 | -0.052 ± 0.013 | 0.0025 ± 0.018 | -0.0365 ± 0.043 | -0.059 ± 0.017 | -0.029 ± 0.02 | 0.07 ± 0.011 | 0.0945 ± 0.012 |
